Results as given in the supplement of paper PMC12819154, “High-throughput peptide-centric local stability assay extends protein–ligand identification to membrane proteins, tissues and bacteria” (Nature Structural & Molecular Biology, 2025).
This is one part of the list. Most values lie at the level of the controls, where differences are scatter.

Sequences of proteins named here, by UniProt entry; tags and fusion partners are left off. A change or cut given only in a name is not applied to a line headed by its entry.
UniProt P62140, whole entry: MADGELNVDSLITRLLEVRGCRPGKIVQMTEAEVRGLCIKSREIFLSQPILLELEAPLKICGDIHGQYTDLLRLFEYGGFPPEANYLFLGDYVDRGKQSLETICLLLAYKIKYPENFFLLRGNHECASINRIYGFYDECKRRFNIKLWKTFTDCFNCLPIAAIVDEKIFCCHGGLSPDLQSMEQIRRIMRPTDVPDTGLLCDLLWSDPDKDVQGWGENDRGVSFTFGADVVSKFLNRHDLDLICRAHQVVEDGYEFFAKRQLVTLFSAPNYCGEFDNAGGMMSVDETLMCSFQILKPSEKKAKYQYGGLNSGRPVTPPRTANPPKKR
UniProt P78345: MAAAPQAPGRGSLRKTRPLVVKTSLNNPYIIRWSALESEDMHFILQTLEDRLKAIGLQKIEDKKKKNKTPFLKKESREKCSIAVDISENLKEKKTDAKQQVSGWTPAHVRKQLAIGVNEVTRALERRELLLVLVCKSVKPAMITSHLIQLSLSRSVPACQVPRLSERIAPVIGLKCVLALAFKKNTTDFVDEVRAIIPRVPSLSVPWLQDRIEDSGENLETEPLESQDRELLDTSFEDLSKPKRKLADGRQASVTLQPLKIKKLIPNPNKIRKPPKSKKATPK
UniProt P60900, whole entry: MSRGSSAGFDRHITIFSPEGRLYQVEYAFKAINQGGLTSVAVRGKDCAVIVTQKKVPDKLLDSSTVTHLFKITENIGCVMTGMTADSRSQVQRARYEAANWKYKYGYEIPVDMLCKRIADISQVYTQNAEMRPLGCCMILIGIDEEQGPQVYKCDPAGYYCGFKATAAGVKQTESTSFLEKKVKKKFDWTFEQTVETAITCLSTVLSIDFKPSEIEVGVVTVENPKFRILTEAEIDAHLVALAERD
UniProt P61081: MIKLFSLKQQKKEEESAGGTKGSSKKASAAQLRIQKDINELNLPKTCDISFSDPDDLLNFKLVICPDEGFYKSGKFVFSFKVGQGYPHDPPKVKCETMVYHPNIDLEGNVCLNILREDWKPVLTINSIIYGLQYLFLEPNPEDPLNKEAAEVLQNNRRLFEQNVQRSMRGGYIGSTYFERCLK
UniProt P57071, whole entry: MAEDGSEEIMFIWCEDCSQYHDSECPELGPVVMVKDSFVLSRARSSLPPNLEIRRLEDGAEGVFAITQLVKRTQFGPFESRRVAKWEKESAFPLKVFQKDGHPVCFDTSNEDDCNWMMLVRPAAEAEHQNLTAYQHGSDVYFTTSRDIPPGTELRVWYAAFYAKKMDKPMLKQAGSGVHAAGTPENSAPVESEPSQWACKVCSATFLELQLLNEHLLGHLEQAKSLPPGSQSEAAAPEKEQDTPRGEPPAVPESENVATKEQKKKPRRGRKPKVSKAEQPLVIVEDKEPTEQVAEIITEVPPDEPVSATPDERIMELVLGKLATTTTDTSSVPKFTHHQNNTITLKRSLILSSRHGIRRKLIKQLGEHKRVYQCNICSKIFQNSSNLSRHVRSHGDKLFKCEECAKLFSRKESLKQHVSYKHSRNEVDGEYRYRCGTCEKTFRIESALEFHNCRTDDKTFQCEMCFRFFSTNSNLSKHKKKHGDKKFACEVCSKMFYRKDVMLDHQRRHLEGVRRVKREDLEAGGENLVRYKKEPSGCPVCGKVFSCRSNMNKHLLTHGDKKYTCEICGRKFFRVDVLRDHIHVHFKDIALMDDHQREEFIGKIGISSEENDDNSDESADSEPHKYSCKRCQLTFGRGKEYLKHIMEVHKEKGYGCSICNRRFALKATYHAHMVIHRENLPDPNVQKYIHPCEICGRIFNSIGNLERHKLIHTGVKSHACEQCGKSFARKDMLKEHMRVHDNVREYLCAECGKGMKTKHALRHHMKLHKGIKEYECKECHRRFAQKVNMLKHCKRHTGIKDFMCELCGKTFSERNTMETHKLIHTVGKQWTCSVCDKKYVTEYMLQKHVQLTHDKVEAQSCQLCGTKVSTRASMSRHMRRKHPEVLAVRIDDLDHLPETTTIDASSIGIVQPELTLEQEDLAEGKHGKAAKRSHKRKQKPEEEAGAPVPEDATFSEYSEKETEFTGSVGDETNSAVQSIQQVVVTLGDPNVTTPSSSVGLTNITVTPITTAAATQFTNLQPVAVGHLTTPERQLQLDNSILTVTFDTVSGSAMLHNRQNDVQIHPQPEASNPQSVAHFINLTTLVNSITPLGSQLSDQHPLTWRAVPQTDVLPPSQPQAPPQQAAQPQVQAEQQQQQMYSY
UniProt P55160: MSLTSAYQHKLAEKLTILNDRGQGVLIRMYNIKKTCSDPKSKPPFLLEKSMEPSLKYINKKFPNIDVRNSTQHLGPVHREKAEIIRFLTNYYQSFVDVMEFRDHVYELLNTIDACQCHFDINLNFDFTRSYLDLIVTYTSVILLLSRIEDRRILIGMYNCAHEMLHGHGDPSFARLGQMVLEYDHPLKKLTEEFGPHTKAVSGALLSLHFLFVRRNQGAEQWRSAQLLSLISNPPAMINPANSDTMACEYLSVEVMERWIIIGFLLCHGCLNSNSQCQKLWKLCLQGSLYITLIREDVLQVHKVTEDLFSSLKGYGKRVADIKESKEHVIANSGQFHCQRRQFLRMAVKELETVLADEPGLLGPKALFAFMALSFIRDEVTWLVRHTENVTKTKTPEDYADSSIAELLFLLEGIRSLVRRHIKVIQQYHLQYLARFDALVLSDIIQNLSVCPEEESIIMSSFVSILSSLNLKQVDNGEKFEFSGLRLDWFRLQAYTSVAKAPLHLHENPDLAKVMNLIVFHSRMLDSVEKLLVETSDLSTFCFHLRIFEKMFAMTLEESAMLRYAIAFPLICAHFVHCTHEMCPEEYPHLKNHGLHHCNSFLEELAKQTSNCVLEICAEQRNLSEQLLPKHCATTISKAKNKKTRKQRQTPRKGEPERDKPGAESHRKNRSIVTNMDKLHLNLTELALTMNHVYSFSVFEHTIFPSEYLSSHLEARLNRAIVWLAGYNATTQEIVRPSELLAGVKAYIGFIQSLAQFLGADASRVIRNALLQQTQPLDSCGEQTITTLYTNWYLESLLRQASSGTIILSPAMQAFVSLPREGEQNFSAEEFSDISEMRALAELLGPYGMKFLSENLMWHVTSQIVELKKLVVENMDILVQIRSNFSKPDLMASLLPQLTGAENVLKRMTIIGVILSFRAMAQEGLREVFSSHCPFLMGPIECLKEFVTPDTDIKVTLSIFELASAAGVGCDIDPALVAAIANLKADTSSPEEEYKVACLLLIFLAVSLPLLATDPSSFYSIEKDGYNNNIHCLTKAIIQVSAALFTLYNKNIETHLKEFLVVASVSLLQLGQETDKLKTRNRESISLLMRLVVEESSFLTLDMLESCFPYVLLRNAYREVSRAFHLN
UniProt P68366, whole entry: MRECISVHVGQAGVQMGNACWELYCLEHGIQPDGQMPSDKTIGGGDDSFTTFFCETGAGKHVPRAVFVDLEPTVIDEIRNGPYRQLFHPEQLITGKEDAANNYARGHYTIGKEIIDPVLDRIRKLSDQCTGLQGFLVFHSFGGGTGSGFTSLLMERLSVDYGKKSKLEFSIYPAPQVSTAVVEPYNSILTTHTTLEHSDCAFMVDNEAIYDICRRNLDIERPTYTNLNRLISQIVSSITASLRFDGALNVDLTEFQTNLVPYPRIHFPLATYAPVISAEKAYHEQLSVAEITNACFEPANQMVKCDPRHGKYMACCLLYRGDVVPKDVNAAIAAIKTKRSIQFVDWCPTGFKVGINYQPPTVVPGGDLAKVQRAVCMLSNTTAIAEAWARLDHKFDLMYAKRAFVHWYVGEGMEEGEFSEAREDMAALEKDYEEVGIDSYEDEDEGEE
UniProt P62633: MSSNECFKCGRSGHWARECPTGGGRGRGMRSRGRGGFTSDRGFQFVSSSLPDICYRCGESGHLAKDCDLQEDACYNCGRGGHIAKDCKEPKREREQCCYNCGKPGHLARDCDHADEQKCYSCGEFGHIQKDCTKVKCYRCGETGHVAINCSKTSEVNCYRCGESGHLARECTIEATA
UniProt P63172, whole entry: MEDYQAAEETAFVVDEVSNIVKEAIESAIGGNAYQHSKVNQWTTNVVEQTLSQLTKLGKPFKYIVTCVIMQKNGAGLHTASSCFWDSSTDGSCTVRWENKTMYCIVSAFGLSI
UniProt P61018: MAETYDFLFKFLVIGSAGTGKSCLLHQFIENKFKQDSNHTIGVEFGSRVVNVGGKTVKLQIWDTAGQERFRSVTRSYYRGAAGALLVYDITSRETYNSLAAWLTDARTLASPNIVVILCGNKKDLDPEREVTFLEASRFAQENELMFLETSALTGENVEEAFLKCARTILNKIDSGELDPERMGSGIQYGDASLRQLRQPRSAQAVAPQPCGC
UniProt P68402: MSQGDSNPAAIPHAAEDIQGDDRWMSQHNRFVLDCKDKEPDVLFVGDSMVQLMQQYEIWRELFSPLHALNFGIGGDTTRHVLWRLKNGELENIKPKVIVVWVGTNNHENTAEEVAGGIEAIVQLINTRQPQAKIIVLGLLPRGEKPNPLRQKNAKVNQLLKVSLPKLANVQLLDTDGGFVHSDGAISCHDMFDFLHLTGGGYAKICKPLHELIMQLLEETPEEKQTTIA
UniProt P61106, whole entry, looked up: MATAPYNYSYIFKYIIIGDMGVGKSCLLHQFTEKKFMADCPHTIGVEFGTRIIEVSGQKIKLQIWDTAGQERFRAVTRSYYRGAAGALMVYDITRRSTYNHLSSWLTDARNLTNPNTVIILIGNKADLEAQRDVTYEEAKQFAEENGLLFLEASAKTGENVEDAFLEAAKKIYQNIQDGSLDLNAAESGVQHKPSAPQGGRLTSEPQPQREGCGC
UniProt P56182: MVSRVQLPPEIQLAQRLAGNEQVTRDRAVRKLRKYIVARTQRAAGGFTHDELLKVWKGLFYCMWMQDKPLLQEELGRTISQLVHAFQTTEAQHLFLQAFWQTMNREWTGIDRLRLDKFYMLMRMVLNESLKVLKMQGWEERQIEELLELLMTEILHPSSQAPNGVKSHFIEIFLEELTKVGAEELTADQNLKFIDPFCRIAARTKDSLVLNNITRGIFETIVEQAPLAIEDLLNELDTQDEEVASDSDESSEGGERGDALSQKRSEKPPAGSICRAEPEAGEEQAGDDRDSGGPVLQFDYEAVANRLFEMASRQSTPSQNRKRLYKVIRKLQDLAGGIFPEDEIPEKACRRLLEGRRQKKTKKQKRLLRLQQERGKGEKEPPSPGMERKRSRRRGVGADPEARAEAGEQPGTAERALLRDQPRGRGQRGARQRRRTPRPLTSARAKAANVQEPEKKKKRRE
UniProt P63279, whole entry: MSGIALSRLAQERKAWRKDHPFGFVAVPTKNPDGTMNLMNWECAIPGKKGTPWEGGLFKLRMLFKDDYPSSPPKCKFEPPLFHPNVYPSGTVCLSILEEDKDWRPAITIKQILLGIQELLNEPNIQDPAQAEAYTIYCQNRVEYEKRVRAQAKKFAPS
UniProt P56962: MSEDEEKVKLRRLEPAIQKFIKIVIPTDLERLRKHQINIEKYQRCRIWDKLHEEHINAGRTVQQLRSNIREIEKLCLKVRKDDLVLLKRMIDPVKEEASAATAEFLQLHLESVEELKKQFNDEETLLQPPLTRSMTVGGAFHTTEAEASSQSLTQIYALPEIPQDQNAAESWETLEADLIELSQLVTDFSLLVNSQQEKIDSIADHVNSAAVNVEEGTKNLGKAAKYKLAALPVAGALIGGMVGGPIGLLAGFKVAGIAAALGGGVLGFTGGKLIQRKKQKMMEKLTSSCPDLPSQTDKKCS
UniProt P56381: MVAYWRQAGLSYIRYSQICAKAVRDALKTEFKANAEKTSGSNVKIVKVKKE
UniProt P61289: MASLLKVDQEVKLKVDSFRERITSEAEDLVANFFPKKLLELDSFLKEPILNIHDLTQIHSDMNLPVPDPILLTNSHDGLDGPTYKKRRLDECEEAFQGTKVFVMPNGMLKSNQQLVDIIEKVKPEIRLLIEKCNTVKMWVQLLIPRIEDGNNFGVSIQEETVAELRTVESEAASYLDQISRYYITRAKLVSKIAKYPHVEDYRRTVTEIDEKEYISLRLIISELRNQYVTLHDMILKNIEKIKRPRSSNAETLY
UniProt P63104: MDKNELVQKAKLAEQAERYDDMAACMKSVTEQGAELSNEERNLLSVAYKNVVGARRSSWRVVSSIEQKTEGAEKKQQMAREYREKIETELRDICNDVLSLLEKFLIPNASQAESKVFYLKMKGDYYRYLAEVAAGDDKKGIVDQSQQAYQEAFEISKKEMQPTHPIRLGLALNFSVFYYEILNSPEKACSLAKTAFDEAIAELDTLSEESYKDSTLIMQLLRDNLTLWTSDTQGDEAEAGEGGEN
UniProt P56385: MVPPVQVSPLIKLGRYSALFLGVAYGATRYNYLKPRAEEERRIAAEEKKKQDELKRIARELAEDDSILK
UniProt P62491: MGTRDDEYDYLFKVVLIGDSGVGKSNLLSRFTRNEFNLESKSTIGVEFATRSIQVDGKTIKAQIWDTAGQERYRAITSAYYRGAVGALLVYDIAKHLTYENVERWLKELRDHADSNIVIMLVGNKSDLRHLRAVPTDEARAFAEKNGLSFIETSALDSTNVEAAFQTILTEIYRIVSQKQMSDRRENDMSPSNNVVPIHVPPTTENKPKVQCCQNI

The targets below were run with Cc1nc(Nc2ncc(C(=O)Nc3c(C)cccc3Cl)s2)cc(N2CCN(CCO)CC2)n1 [dasatinib] (assay: log2 fold change of tryptic peptide abundance, ligand vs vehicle (limited proteolysis) (log2 ratio); higher = more trypsin-susceptible (destabilized)). Settings: ligand concentration: 5 uM; sample: K562 cleared lysate.
In the case of “UniProt P61224 (peptide sequence: VKDTDDVPMILVGNK, peptide start residue: 103)”, the log2 fold change is reported as -0.0124. In the case of “UniProt P62280 (peptide sequence: YYKNIGLGFKTPK, peptide start residue: 36)”, the log2 fold change is reported as 0.249. “BCAR1 (peptide sequence: FVILSAHK, peptide start residue: 784) (UniProt P56945)” was tested, and the log2 fold change was 0.196. Work on “UniProt P62140 (peptide sequence: ICGDIHGQYTDLLR, peptide start residue: 60)” yielded a log2 fold change of 0.951. In the case of “UniProt P62987 (peptide sequence: YNCDKMICR, peptide start residue: 89)”, the log2 fold change is reported as -0.0568. “UniProt P63244 (peptide sequence: LWNTLGVCK, peptide start residue: 131)” was tested, and the log2 fold change was 0.103. Target “RPL10A (peptide sequence: KVLCLAVAVGHVK, peptide start residue: 161) (UniProt P62906)” has a log2 fold change of 0.11. “RPP38 (peptide sequence: QQVSGWTPAHVRK, peptide start residue: 99) (UniProt P78345)” was tested, and the log2 fold change was -0.497. “UniProt P57076 (peptide sequence: EPIISSEEQK, peptide start residue: 231)” showed a log2 fold change of -0.41. In the case of “PSMA6 (peptide sequence: GKDCAVIVTQK, peptide start residue: 44) (UniProt P60900)”, the log2 fold change is reported as 0.52. “UniProt P61081 (peptide sequence: SMRGGYIGSTYFERCLK, peptide start residue: 167)” was tested, and the log2 fold change was -0.242. “PRDM15 (peptide sequence: LATTTTDTSSVPK, peptide start residue: 688) (UniProt P57071)” was tested, and the log2 fold change was 0.163. Work on “NCKAP1L (peptide sequence: HCATTISK, peptide start residue: 631) (UniProt P55160)” yielded a log2 fold change of 0.147. Work on “UniProt P68366 (peptide sequence: HGKYMACCLLYR, peptide start residue: 309)” yielded a log2 fold change of -0.0849. “CNBP (peptide sequence: CGESGHLAR, peptide start residue: 161) (UniProt P62633)” showed a log2 fold change of -0.0997. With “DYNLT1 (peptide sequence: YIVTCVIMQK, peptide start residue: 63) (UniProt P63172)” the log2 fold change was -0.786. With “RAB4B (peptide sequence: FLVIGSAGTGK, peptide start residue: 11) (UniProt P61018)” the log2 fold change was -0.522. “PAFAH1B2 (peptide sequence: IIVLGLLPR, peptide start residue: 134) (UniProt P68402)” gave a log2 fold change of -0.422. “UniProt P62258 (peptide sequence: IISSIEQKEENKGGEDK, peptide start residue: 62)” was tested, and the log2 fold change was -0.58. Work on “UniProt P61106 (peptide sequence: SCLLHQFTEKK, peptide start residue: 25)” yielded a log2 fold change of -0.508. For “SKP1 (peptide sequence: TPEEIRK, peptide start residue: 131) (UniProt P63208)”, the log2 fold change was 0.0937. With “RRP1 (peptide sequence: AEAGEQPGTAER, peptide start residue: 404) (UniProt P56182)” the log2 fold change was 0.136. With “UniProt P60953 (peptide sequence: QKPITPETAEK, peptide start residue: 134)” the log2 fold change was -0.168. “UniProt P61160 (peptide sequence: DLMVGDEASELR, peptide start residue: 54)” gave a log2 fold change of 0.0714. Target “UniProt P63279 (peptide sequence: GTPWEGGLFK, peptide start residue: 50)” has a log2 fold change of -0.088. Target “STX17 (peptide sequence: LTSSCPDLPSQTDKKCS, peptide start residue: 286) (UniProt P56962)” has a log2 fold change of -0.302. “UniProt P56381 (peptide sequence: DALKTEFKANAEK, peptide start residue: 25)” gave a log2 fold change of -0.468. “UniProt P62495 (peptide sequence: FHTEALTALLSDDSK, peptide start residue: 131)” gave a log2 fold change of -0.409. “PRAME (peptide sequence: HVMNPLETLSITNCR, peptide start residue: 319) (UniProt P78395)” was tested, and the log2 fold change was -0.173. For “LMO4 (peptide sequence: CFTCSTCR, peptide start residue: 112) (UniProt P61968)”, the log2 fold change was 0.348. “UniProt P61289 (peptide sequence: LLIEKCNTVK, peptide start residue: 128)” gave a log2 fold change of -0.487. “YWHAZ (peptide sequence: NLLSVAYKNVVGARR, peptide start residue: 42) (UniProt P63104)” gave a log2 fold change of 0.191. “UniProt P56385 (peptide sequence: ELAEDDSILK, peptide start residue: 60)” was tested, and the log2 fold change was 0.05. “MRPS21 (peptide sequence: NRADPWQGC, peptide start residue: 79) (UniProt P82921)” was tested, and the log2 fold change was 0.145. For “UniProt P62491 (peptide sequence: AQIWDTAGQER, peptide start residue: 62)”, the log2 fold change was 0.0747. “UniProt P62277 (peptide sequence: FVTGNKILR, peptide start residue: 65)” gave a log2 fold change of -0.435. Target “UniProt P61163 (peptide sequence: EGYDFHSSSEFEIVK, peptide start residue: 201)” has a log2 fold change of 0.51.
